Source: patent publication US20040171537A1
These are yes or no findings as the source states them, for the method shown. Binding seen in cells or lysates may run through a third protein. Some results given as binding are weak or reduced against the parent protein; the word gives no strength. For part of these data: Where a sequence is shown, tags or fusion partners need not be part of it. Each block holds one binder with its values, some of them ahead of it.

By UniProt entry, the sequences of proteins in these tests, tags left out.
UniProt P43403: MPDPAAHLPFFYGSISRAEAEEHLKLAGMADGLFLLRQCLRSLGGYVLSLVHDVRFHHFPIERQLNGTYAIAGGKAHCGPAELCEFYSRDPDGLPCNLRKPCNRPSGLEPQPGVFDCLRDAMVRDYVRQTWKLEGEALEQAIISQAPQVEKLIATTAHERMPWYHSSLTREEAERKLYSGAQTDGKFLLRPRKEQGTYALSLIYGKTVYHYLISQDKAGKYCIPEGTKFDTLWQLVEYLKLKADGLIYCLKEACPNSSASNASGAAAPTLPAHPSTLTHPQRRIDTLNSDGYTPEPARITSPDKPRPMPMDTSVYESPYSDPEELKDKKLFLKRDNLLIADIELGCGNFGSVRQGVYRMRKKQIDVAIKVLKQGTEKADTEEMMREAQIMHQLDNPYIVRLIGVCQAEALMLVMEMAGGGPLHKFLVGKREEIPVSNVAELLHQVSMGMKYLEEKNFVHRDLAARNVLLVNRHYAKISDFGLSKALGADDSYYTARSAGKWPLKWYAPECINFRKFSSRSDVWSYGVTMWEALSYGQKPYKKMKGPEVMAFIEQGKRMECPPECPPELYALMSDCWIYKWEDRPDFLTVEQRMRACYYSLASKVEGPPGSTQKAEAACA

Tests used:
[1] = target: c-Cbl (endogenous, mouse primary thymocytes) (mouse) (UniProt P22682); assay: co-immunoprecipitation with anti-MARS-C from mouse primary thymocytes, anti-c-Cbl immunoblot
[2] = target: c-Cbl (endogenous, Jurkat T-cell lysate) (human) (UniProt P22681); assay: summary statement; the matching experiment is the GST pull-down from Jurkat lysates of FIG. 13
[3] = target: ZAP-70 (endogenous, Jurkat T-cell lysate) (human) (UniProt P43403); assay: summary statement; the matching experiment is the GST pull-down from Jurkat lysates of FIG. 13 (anti-phosphotyrosine blot)
[4] = target: ZAP-70 (endogenous, Jurkat T-cell lysate) (human) (UniProt P43403); assay: GST pull-down from anti-CD3 stimulated Jurkat lysates, immunoblot
[5] = target: ZAP-70 (endogenous, Jurkat T-cell lysate) (human) (UniProt P43403); assay: GST pull-down from Jurkat lysates, immunoblot
[6] = target: ZAP-70 (endogenous, Jurkat T-cell lysate) (human) (UniProt P43403); assay: GST pull-down from Jurkat lysates, immunoblot (legend of FIG. 5)

binding [1]: binds
B1: murine MARS protein (endogenous) (protein)
chain: GSLSSRGKTSSPSPSSSGPDQEPVSMQPERHKVTAVALGSFPAGEQARLSLRLGEPLTIISEDGDWWTVQSEVSGREYHMPSVYVAKVAHGWLYEGLSREKAEELLLLPGNPGGAFLIRESQTRRGCYSLSVRLSRPASWDRIRHYRIQRLDNGWLYISPRLTFPSLHALVEHYSELADGICCPLREPCVLQKLGPLPGKDTPPPVTVPTSSLNWKKLDRSLLFLEAPASGEASLLSEGLRESLSSYISLAEDPLDDA
modifications: p28 isoform carries an N-terminal myristoylation sequence

binding [2]: binds | binding [3]: binds
B2: GST fusion of full-length human MARS (protein, not shown: a dimerising Fc or GST)
chain: MGSLPSRRKSLPSPSLSSSVQGQGPVTMEAERSKATAVALGSFPAGGPAELSLRLGEPLTIVSEDGDWWTVLSEVSGREYNIPSVHVAKVSHGWLYEGLSREKAEELLLLPGNPGGAFLIRESQTRRGSYSLSVRLSRPASWDRIRHYRIHCLDNGWLYISPRLTFPSLQALVDHYSELADDICCLLKEPCVLQRAGPLPGKDIPLPVTVQRTPLNWKELDSSLLFSEAATGEESLLSEGLRESLSFYISLNDEAVSLDDA

binding [4]: binds | binding [5]: binds | binding [6]: binds
B3: GST-MARS (wild type murine MARS GST fusion protein) (protein, not shown: a dimerising Fc or GST)
chain: MGSLSSRGKTSSPSPSSSGPDQEPVSMQPERHKVTAVALGSFPAGEQARLSLRLGEPLTIISEDGDWWTVQSEVSGREYHMPSVYVAKVAHGWLYEGLSREKAEELLLLPGNPGGAFLIRESQTRRGCYSLSVRLSRPASWDRIRHYRIQRLDNGWLYISPRLTFPSLHALVEHYSELADGICCPLREPCVLQKLGPLPGKDTPPPVTVPTSSLNWKKLDRSLLFLEAPASGEASLLSEGLRESLSSYISLAEDPLDDA
